# Taken from: PubChem BioAssay AID602196 (INSERM, 2012)
# Aim: 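Modifiers of cisplatin sensitivity in A549 cells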
# Cell system: human A549 lung cancer cells
# Knock-down reagent: siRNA pair against human genes
# Timing: 48 h transfection before cisplatin; time from cisplatin to read-out not stated
# Challenge: cisplatin at a dose killing half of control-siRNA cells; exact dose and duration not given
# Measurement: 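Cisplatin cell death as a shift from the 50% death seen with control siRNA; siRNAs toxic or growth-blocking alone scored 0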
# Direction: two-siRNA summed score (-2 to +2): higher = both siRNAs protect from cisplatin killing; -2 means both sensitise; mean protection from cisplatin (shift in death): higher = protection from cisplatin killing
# Rule for the call: 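Each siRNA scores 0 if harmful alone by LDH or WST-1, otherwise +1 if it reduces and -1 if it increases cisplatin killing; a gene is active when both siRNAs agree (sum +2 or -2)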
# Meaning of the calls: active = both siRNAs shift cisplatin killing the same way; inactive = no consistent shift, or siRNA harmful alone
# Here is one part, drawn at random, of about 23,000 reagents. Over the whole deposit, 455 (2%) were called active. 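Active includes both protection and sensitisation; some change values fall well beyond the stated -50 to +50 range.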 The numbers tell different reagents against one gene apart. Further read-outs or replicates are left out here. Reagent sequences are not shown. The record does not give: the amount of reagent.
gene symbol,reagent no.,two-siRNA summed score (-2 to +2),mean protection from cisplatin (shift in death) (%),Outcome
GPRC5B (G protein-coupled receptor class C group 5 member B),1,1,8.4,inactive
DERL2 (derlin 2),1,0,18.9,inactive
IBA57 (iron-sulfur cluster assembly factor IBA57),1,0,0.6,inactive
LOC401336,1,0,7.1,inactive
"SPTBN4 (spectrin beta, non-erythrocytic 4)",1,0,-8.1,inactive
IFT81 (intraflagellar transport 81),1,1,5.1,inactive
GLCE (glucuronic acid epimerase),1,0,3.8,inactive
COPS6 (COP9 signalosome subunit 6),1,0,-3.5,inactive
ACSBG2 (acyl-CoA synthetase bubblegum family member 2),1,0,6.6,inactive
APH1B (aph-1B gamma-secretase subunit),1,0,2.5,inactive
ICOSLG (inducible T cell costimulator ligand),1,0,-1.7,inactive
CDIPT (CDP-diacylglycerol--inositol 3-phosphatidyltransferase),1,0,-5.1,inactive
OR6C1 (olfactory receptor family 6 subfamily C member 1),1,0,13.1,inactive
AHSP (alpha hemoglobin stabilizing protein),1,0,-2.5,inactive
RORB (RAR related orphan receptor B),1,0,-2.5,inactive
WIF1 (Wnt inhibitory factor 1),1,0,0,inactive
CHML (CHM like Rab escort protein),1,1,12.9,inactive
ADAM15 (ADAM metallopeptidase domain 15),1,0,6,inactive
OLFML3 (olfactomedin like 3),1,0,-0.6,inactive
CASQ1 (calsequestrin 1),1,1,6.8,inactive
DDX39B (DExD-box helicase 39B),1,0,16.1,inactive
MAST1 (microtubule associated serine/threonine kinase 1),1,0,-2.6,inactive
SLC39A9,1,0,-4.5,inactive
CD1C (CD1c molecule),1,0,6.4,inactive
LOC442746,1,1,11.5,inactive
SLC19A3,1,-1,-8.8,inactive
CYTL1 (cytokine like 1),1,0,-1.3,inactive

An excerpt from above, limited to “two-siRNA summed score (-2 to +2)”:
ACSBG2 (acyl-CoA synthetase bubblegum family member 2)	0
APH1B (aph-1B gamma-secretase subunit)	0
ICOSLG (inducible T cell costimulator ligand)	0

Next records follow:
gene symbol,reagent no.,two-siRNA summed score (-2 to +2),mean protection from cisplatin (shift in death) (%),Outcome
RPS24 (ribosomal protein S24),1,0,35.1,inactive
SLC8A2,1,0,-1.1,inactive
LOC400843,1,0,2.1,inactive
LOC440433,1,1,13.5,inactive
"PPM1A (protein phosphatase, Mg2+/Mn2+ dependent 1A)",1,1,15.6,inactive
PDCD10 (programmed cell death 10),1,0,-12.3,inactive
TRPA1,1,-1,-17.6,inactive
LOC440037,1,-1,-3.9,inactive
SLC27A3,1,0,2.2,inactive
EDNRA (endothelin receptor type A),1,-1,-7.9,inactive
DEDD (death effector domain containing),1,0,0.3,inactive
CD1D (CD1d molecule),1,0,6.1,inactive
PSG3 (pregnancy specific beta-1-glycoprotein 3),1,0,5.2,inactive
PARP16 (poly(ADP-ribose) polymerase family member 16),1,0,18,inactive
CTRC (chymotrypsin C),1,0,-10.9,inactive
LOC257177,1,1,9.2,inactive
ECM2 (extracellular matrix protein 2),1,-1,-9.4,inactive
OR2A7 (olfactory receptor family 2 subfamily A member 7),1,0,6.2,inactive
ASRGL1 (asparaginase and isoaspartyl peptidase 1),1,-2,-25,active
LOC391343,1,0,9.2,inactive
SATL1 (spermidine/spermine N1-acetyl transferase like 1),1,1,9.2,inactive
GOLIM4 (golgi integral membrane protein 4),1,0,10.4,inactive
KDM1A (lysine demethylase 1A),1,1,3.3,inactive
LINC01278 (long independently transcribed non-coding RNA 1278),1,0,-0.8,inactive
KCTD13 (potassium channel tetramerization domain containing 13),1,0,1.6,inactive
SEL1L (SEL1L adaptor subunit of SYVN1 ubiquitin ligase),1,0,-4.4,inactive
PARPBP (PARP1 binding protein),1,-1,-7.9,inactive
HS3ST1 (heparan sulfate-glucosamine 3-sulfotransferase 1),1,0,-0.1,inactive
FKBP9P1 (FKBP prolyl isomerase 9 pseudogene 1),1,1,7.9,inactive
NR5A1 (nuclear receptor subfamily 5 group A member 1),1,-1,-12.1,inactive
SLC10A4,1,-1,2,inactive
NDUFA6 (NADH:ubiquinone oxidoreductase subunit A6),1,0,2.3,inactive
KLF8 (KLF transcription factor 8),1,2,17.8,active
FAABTP (fatty acid amide binding transmembrane protein),1,0,-2.1,inactive
ZCCHC2 (zinc finger CCHC-type containing 2),1,0,-5.7,inactive
ZCCHC2 (zinc finger CCHC-type containing 2),2,0,7.1,inactive
LOC392512,1,0,8.2,inactive
LOC388917,1,1,8.4,inactive
LINC01801 (long independently transcribed non-coding RNA 1801),1,0,5.2,inactive
CFAP263 (cilia and flagella associated protein 263),1,0,-1,inactive
COX7B2 (cytochrome c oxidase subunit 7B2),1,0,7.5,inactive
LOC440420,1,0,1.1,inactive
CENPQ (centromere protein Q),1,0,-8.2,inactive
"RAB28 (RAB28, member RAS oncogene family)",1,-1,-13.9,inactive
LOC389848,1,0,40.4,inactive
LPAR6 (lysophosphatidic acid receptor 6),1,0,-9.5,inactive
